According to patent US20190002915A1, “COMPOSITIONS AND METHODS FOR REGULATABLE ANTIBODY EXPRESSION” (The Trustees of the University of Pennsylvania, priority 2015, published 2019):
For at least one compound, name, drawing or mass did not settle the structure.

Tested on: Z12i promoter ffLuc reporter in HEK293 cells
Experiment: ffLuc reporter induction under Z12i promoter in transfected HEK293 cells
Type: cell-based
Settings: TF cis-plasmids plus Z12i-ffLuc reporter, rapamycin versus rapalog, all TF systems tested
Experimental: Cis plasmid constructs having the following elements, from 5′ to 3′ were constructed: promoter, nuclear localization signal (NLS), FRAPL (lipid kinase homolog having rapamycin binding domain), p65 of human NF-κB (transcriptional activation domain), IRES, zinc finger (DNA binding domain), 2 or 3 copies of FK506 binding protein as shown below, and a poly A.
These cis plasmids were tested for in HEK293 cells for the ability to induce expression of ffLuc reporter gene under the control of Z12i promoter, consisting of 12 ZFHD binding sites followed by minimal IL2 promoter. Briefly, HEK293 cells were transfected with cis-plasmids along with the reporter constructs. 24-72 hours post transfection, cells were treated with various concentrations of either rapamycin (sirolimus) or rapalog AP22594 as indicated in FIG. 5. Expression of ffLuc was assessed using dual luciferase detection kit from Promega according to manufacturer's instructions. […] Antibodies normally are secreted into supernatant buy the transfected cells. In this experiment, transfection was performed using lipofectamine according to the manufacturer's instructions, and induction was carried out the next day after transfection using indicated amounts of rapalog. At 72 hours post transfection, supernatants were harvested and expression of anti-SIV antibody was assessed using antigen specific ELISA or protein A ELISA. […]

SMILES: CO[C@H]1C[C@@H]2CC[C@@H](C)[C@@](O)(O2)C(=O)C(=O)N2CCCC[C@H]2C(=O)O[C@H]([C@H](C)C[C@@H]2CC[C@@H](O)[C@H](OC)C2)CC(=O)[C@H](C)/C=C(\C)[C@@H](O)[C@@H](OC)C(=O)[C@H](C)C[C@H](C)/C=C/C=C/C=C/1C [rapamycin]
- induction of transgene (ffLuc) expression: comparable levels of induction of transgene expression
